# In all, about 400,000 compounds went through this assay and about 13,000 (3.2%) were called active. The shares of active, inactive and inconclusive entries below differ from those in the screen. The call rests on the fitted dose curve; in most records, active means well fitted cell-killing curve with a large enough effect; inconclusive means small, poorly fitted or top-dose-only effect, or effect the other way; inactive means flat fitted curve, though single readings scatter. Potencies beside an inconclusive call are fits to weak or partial responses and may not hold up.
# Test: qHTS assay for MDR1-selective chemotherapeutics: Primary screen using the drug-selected MDR subline cells KB-V1; further: nearly all actives have a fitted effect of over 60% in size
# Conditions: KB-V1 MDR cells viability, CellTiter-Glo, 72 h; activity change, negative = cytotoxicity: at 46.1 µM (top of the series)
# How it was run: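 In this primary screen, KB-V1 cells overexpressing P-gp are incubated with library compounds (lowest to highest concentration) for 72 h at 37 degrees C before a luminescent ATP viability read.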
# On the % scale 0 is the no-effect control and ±100 the full control effect; potency means the concentration at half of the fitted maximal effect.
Compound,Potency,"activity change, negative = cytotoxicity"
CC1(C)Cc2c(cnn2-c2cccc(F)c2)C(NC(=O)c2cc[n+]([O-])cc2)C1 (configuration not stated),"inconclusive: 29.1 µM [rising, single point]",
CSc1oc(-c2cccs2)nc1S(=O)(=O)c1ccccc1,inactive,
O=C(NC1(Cc2ccccc2)CCN(CCCc2ccccc2)C1=O)c1ccccc1 (configuration not stated),inactive,
CCOC(=O)c1c(/N=C/c2cccc([N+](=O)[O-])c2O)sc(C)c1C,inactive,
CCC(C)(C)n1nnnc1C(c1cc2cccc(C)c2[nH]c1=O)N1CCCC1 (configuration not stated),"inconclusive: 16.4 µM [cytotoxic, partial curve]",
Cc1nc(NC(=O)/C=C/c2ccco2)sc1C,"inconclusive: 3.26 µM [cytotoxic, full curve, poor fit]",
CC(C)CC(=O)Nc1c2c(nn1-c1cccc(Cl)c1)CS(=O)C2 (configuration not stated),"inconclusive: 20.6 µM [rising, single point]",
Cc1ccc(NC(=O)c2cc(=O)[nH]c3ccccc23)cc1,inactive,
CC(=O)N(C(C)=O)S(=O)(=O)c1ccc(N=NN2CCCCC2)cc1,"inconclusive: 11.6 µM [rising, partial curve]",
CCOc1cc(C#N)c(NC(=O)c2ccc(OC)c(S(=O)(=O)N3CCCCC3)c2)cc1OCC,inactive,
CC(=O)c1ccc(NC(=O)c2cnc(N3CCCC3)nc2C)cc1,inactive,
O=C(COC(=O)C(O)c1ccccc1)c1ccc2c(c1)OCCO2 (configuration not stated),"inconclusive: 25.9 µM [rising, single point]",
O=C(Nn1cnnc1)c1ccccc1Cl,"inconclusive: 20.6 µM [rising, single point]",
CCCCNC(=O)CSc1nc2ccc(N3CCOCC3)cc2c(=O)n1CCc1ccccc1,active: 0.58 µM,
Cc1cc(C(=O)CSc2nnnn2C)c(C)n1-c1ccc2c(c1)OCCO2,active: 20.6 µM,
CC(C)c1ccc(-n2cnn(-c3ncccc3[N+](=O)[O-])c2=O)cc1,"inconclusive: 29.1 µM [cytotoxic, single point]",
CN(C(=O)c1ccc(S(=O)(=O)N2CCOCC2)cc1)C1CCS(=O)(=O)C1 (configuration not stated),"inconclusive: 11.6 µM [rising, partial curve, poor fit]",
CCOc1cc2c3c(c1)C(C)CC(C)(C)N3C(=O)C2=O (configuration not stated),active: 14.6 µM,
Cc1ccc(Cl)cc1N1CCN(S(C)(=O)=O)CC1,"inconclusive: 20.6 µM [cytotoxic, partial curve]",
COc1ccc(S(=O)(=O)Nc2ccccc2-c2nnn(CC(=O)Nc3ccccc3OC)n2)cc1,inactive,
Cc1ccc2oc(=O)c3cc(C(=O)N4CCN(C)CC4)sc3c2c1,inactive,
COc1ccccc1N1CCN(S(=O)(=O)c2ccc(-c3coc(C)n3)cc2)CC1,"inconclusive: 29.1 µM [rising, single point]",
CCCCn1c(SCC(=O)NCc2ccco2)nc2c(sc3ccccc32)c1=O,,inconclusive: -57.6%
C=CCc1cc(Cl)ccc1OCCN1CC(C)OC(C)C1 (configuration not stated),"inconclusive: 23.1 µM [cytotoxic, single point]",

Compound,Potency,"activity change, negative = cytotoxicity"
COc1ccc(-n2nnc3c(SCc4ccccc4)ncnc32)cc1,"inconclusive: 32.6 µM [cytotoxic, partial curve, poor fit]",
Cc1ccccc1Nc1nc(N)nc(COC(=O)c2cccc(S(=O)(=O)N(C)c3ccccc3)c2)n1,"inconclusive: 20.6 µM [cytotoxic, partial curve, poor fit]",
CCN(C(=O)CSc1nc(-c2ccc(C(C)C)cc2)no1)c1ccccc1,inactive,
CCOCCCNC(=O)c1c(C)c(C(=O)OCC)n(C)c1C,inactive,
N=c1n(CCN2CCOCC2)c2ccccc2n1Cc1ccccc1Br,"inconclusive: 23.1 µM [cytotoxic, single point]",
COc1ccc(OCc2cc(-c3ccc(Cl)cc3)no2)cc1,inactive,
CC(C)C1CC(CCNCc2ccc3c(c2)OCO3)(c2ccccc2)CCO1 (configuration not stated),"inconclusive: 20.6 µM [cytotoxic, single point]",
O/N=C(/c1ccc(Cl)cc1)C1CC1c1ccccc1 (configuration not stated),"inconclusive: 0.411 µM [rising, full curve]",
O=C(Cn1c(=O)n(Cc2nc(-c3ccccc3)no2)c(=O)c2cc3c(cc21)OCO3)Nc1cccc(C(F)(F)F)c1,inactive,
COc1ccc(NC(=O)CN(C)C(=O)c2cc3c(s2)CCC(C)C3)cc1 (configuration not stated),"inconclusive: 18.4 µM [cytotoxic, single point]",
O=c1[nH]c(=O)n(C2OC(CO)C(O)C2O)c2c1CCCC2 (configuration not stated),inactive,
NNC(=O)CC1NCCN(Cc2ccccc2)C1=O (configuration not stated),"inconclusive: 25.9 µM [rising, single point]",
CCc1cccc2c1NC(=O)C21OCCO1,inactive,
CCOC(=O)C1CCN(C(=O)Cn2ncc3c([nH]c4ccccc43)c2=O)CC1,"inconclusive: 18.4 µM [rising, single point]",
COc1cccc(NC(=S)NCc2ccc3c(c2)cc(C)n3C)c1,inactive,
Cc1cc(C)nc(NC(=O)c2ccc([N+](=O)[O-])o2)n1,inactive,
C=CCn1c(C(C)NC(=O)c2ccc(C)cc2)n[nH]c1=S (configuration not stated),"inconclusive: 20.6 µM [cytotoxic, partial curve, poor fit]",
CCCN(C(=O)Cc1coc2cc(C)c(C)cc12)c1c(N)n(Cc2ccccc2)c(=O)[nH]c1=O,"inconclusive: 29.1 µM [rising, single point]",
COc1cccc(C2CC(=O)Nc3c2c(=O)n(C)c2nc4ccccc4n32)c1 (configuration not stated),inactive,
CN(c1ccccc1)S(=O)(=O)c1ccc(Cl)c(C(=O)NCCc2c[nH]c3ccccc23)c1,"inconclusive: 32.6 µM [cytotoxic, single point]",
Cn1c(N2CCOCC2)nc2c1c(=O)n(Cc1ccc(Cl)cc1)c(=O)n2C,active: 23.1 µM,
C=CCn1c(SCc2nc3scc(-c4ccccc4)c3c(=O)[nH]2)nnc1-c1ccccc1F,"inconclusive: 32.6 µM [cytotoxic, partial curve, poor fit]",
Cn1c(=O)c2c(nc(N3CCN(Cc4ccccc4)CC3)n2CC(=O)c2ccccc2)n(C)c1=O,"inconclusive: 16.4 µM [cytotoxic, partial curve, poor fit]",
CC(OC(=O)c1ccccc1OCc1ccc(Cl)cc1)C(N)=O (configuration not stated),"inconclusive: 16.4 µM [cytotoxic, single point]",

# Part of the list above in order of molar mass, low to high.
Compound,Potency,"activity change, negative = cytotoxicity"
CCc1cccc2c1NC(=O)C21OCCO1,inactive,
Cc1cc(C)nc(NC(=O)c2ccc([N+](=O)[O-])o2)n1,inactive,
O/N=C(/c1ccc(Cl)cc1)C1CC1c1ccccc1 (configuration not stated),"inconclusive: 0.411 µM [rising, full curve]",
CCOCCCNC(=O)c1c(C)c(C(=O)OCC)n(C)c1C,inactive,
COc1ccc(OCc2cc(-c3ccc(Cl)cc3)no2)cc1,inactive,
CC(OC(=O)c1ccccc1OCc1ccc(Cl)cc1)C(N)=O (configuration not stated),"inconclusive: 16.4 µM [cytotoxic, single point]",
COc1cccc(NC(=S)NCc2ccc3c(c2)cc(C)n3C)c1,inactive,
COc1ccc(-n2nnc3c(SCc4ccccc4)ncnc32)cc1,"inconclusive: 32.6 µM [cytotoxic, partial curve, poor fit]",
COc1ccc(NC(=O)CN(C)C(=O)c2cc3c(s2)CCC(C)C3)cc1 (configuration not stated),"inconclusive: 18.4 µM [cytotoxic, single point]",
COc1cccc(C2CC(=O)Nc3c2c(=O)n(C)c2nc4ccccc4n32)c1 (configuration not stated),inactive,
CCN(C(=O)CSc1nc(-c2ccc(C(C)C)cc2)no1)c1ccccc1,inactive,
Cn1c(N2CCOCC2)nc2c1c(=O)n(Cc1ccc(Cl)cc1)c(=O)n2C,active: 23.1 µM,
N=c1n(CCN2CCOCC2)c2ccccc2n1Cc1ccccc1Br,"inconclusive: 23.1 µM [cytotoxic, single point]",
C=CCn1c(SCc2nc3scc(-c4ccccc4)c3c(=O)[nH]2)nnc1-c1ccccc1F,"inconclusive: 32.6 µM [cytotoxic, partial curve, poor fit]",
Cc1ccccc1Nc1nc(N)nc(COC(=O)c2cccc(S(=O)(=O)N(C)c3ccccc3)c2)n1,"inconclusive: 20.6 µM [cytotoxic, partial curve, poor fit]",

# (further entries)

Compound,Potency,"activity change, negative = cytotoxicity"
O=S(=O)(c1ccc2c(c1)CCC2)N1CCN(c2nc(-c3ccccc3)nc3ccccc23)CC1,inactive,
COC(=O)c1c(C)[nH]c(C(=O)C(C)OC(=O)C2CC(=O)N(c3ccc(C)cc3)C2)c1C (configuration not stated),"inconclusive: 25.9 µM [cytotoxic, single point]",
Nc1nc(N)c(N=O)c(Nc2ccc(Cl)c(Cl)c2)n1,"inconclusive: 20.6 µM [cytotoxic, single point]",
CCC(C)N(C)C(=O)c1cc2ccccc2c(-c2ccccc2Cl)n1 (configuration not stated),"inconclusive: 23.1 µM [cytotoxic, partial curve, poor fit]",
Oc1ccc(Br)c(CN2CCN(c3ncc(Cc4ccccc4)cn3)CC2)c1,active: 18.4 µM,
O=C(OCc1cn([C@H]2CN(C(=O)C3CCCCC3)[C@@H](c3ccc(Cl)cc3)C[C@@H]2O)nn1)c1ccccc1,inactive,
CCOCCCN(CCC#N)S(=O)(=O)c1ccc(S(=O)(=O)N2CCCC2)cc1,active: 25.9 µM,
O=C(CNC(=O)c1ccccc1F)N/N=C/c1cc(Br)ccc1OC(=O)/C=C/c1ccco1,active: 16.4 µM,
NS(=O)(=O)c1ccc(NC(=S)Nc2ccn(Cc3cccc4ccccc34)n2)cc1,"inconclusive: 0.651 µM [cytotoxic, full curve, poor fit]",
c1ccc(Cc2nnc3sc(-c4ccncc4)nn23)cc1,inactive,
COc1ccc(NCC(=O)N/N=C/C=C\c2ccccc2)cc1,inactive,
CC(=O)CSc1nc2c(c(=O)[nH]c(=O)n2C)n1CCCc1ccccc1,"inconclusive: 29.1 µM [cytotoxic, single point]",
Nc1nc2c(nc(N3CCOCC3)n2COCCO)c(=O)[nH]1,"inconclusive: 23.1 µM [rising, single point]",
Cc1cc(C)nc(SCc2nnc(SCC(N)=O)o2)n1,"inconclusive: 29.1 µM [rising, single point]",
CCC1NC(=O)c2cccnc2-n2c1nc1ccc(F)cc1c2=O (configuration not stated),inactive,
Cc1cc(C)cc(OCC(=O)NNC(=S)NC(=O)C2CC2)c1,inactive,
O=[N+]([O-])c1ccc(S(=O)(=O)NCCS(=O)(=O)N2CCN(c3ccccc3)CC2)cc1,inactive,
COCCCNC(=O)c1cccc2c(-c3ccc(O)c(OC)c3)coc12,"inconclusive: 11.6 µM [cytotoxic, partial curve, poor fit]",
O=C1C2C3C=CC(C3=C(c3ccccc3)c3ccccc3)C2C(=O)N1Cc1ccccc1 (configuration not stated),active: 23.1 µM,
COc1ccc(NC(=O)C(c2ccc(OC)cc2)n2c(=O)c(-c3ccco3)nc3ccccc32)cc1 (configuration not stated),"inconclusive: 23.1 µM [cytotoxic, single point]",
COc1ccc(CN2CCCC(C(=O)c3ccc(Cl)cc3)C2)cc1Cn1cncn1 (configuration not stated),,inconclusive: -8.04%
Cc1nc(NC(=O)c2cccs2)ccc1Br,"inconclusive: 29.1 µM [cytotoxic, single point]",
Cn1c(C(=O)NCCc2ccsc2)cc2c(=O)n(C)c3ccccc3c21,"inconclusive: 20.6 µM [cytotoxic, single point]",
CN(C(=O)c1cccc(NC(=O)Cc2ccc(NC(=O)C3CCN(C(=O)c4ccccc4)CC3)cc2)c1)C1CCC1,"inconclusive: 3.26 µM [rising, partial curve, poor fit]",

# Reference: PubChem BioAssay AID1347076 (National Center for Advancing Translational Sciences (NCATS), 2019)
